{"source": "patent US5554636A", "about": "“N-acylated 4-hydroxphenylamine derivatives with analgesic properties and pharmaceutical compositions containing them” (priority 1995, dated 1996)", "tested_on": "writhes produced by intraperitoneal acetic acid in CD-1 mice", "test": "acetic acid writhing test", "type": "in vivo, CD-1 mice (Charles-River)", "details": "oral, 0.4% acetic acid i.p. 25 minutes later", "experimental": "Analgesic activity was measured in CD-1 mice (Charles-River) on the basis of the following three methods:\nThe third method consists in measuring the number of writhes performed by a mouse as a manifestation of the pain produced by an intraperitoneal injection of 10 mL/kg of 0.4% acetic acid solution. […] Following oral administration of each compound, the mice (groups of 8 or more) received, 25 minutes later, an intraperitoneal injection of 10 mL/kg of 0.4% acetic acid. The number of writhes was counted 5-15 minutes after the injection of acetic acid."}
{"smiles": "CN1CC[C@]23c4c5ccc(O)c4O[C@H]2[C@@H](O)C=C[C@H]3[C@H]1C5", "note": "[Morphine]", "values": [{"measurement": "ED50, acetic acid test", "value": 8.2, "unit": "mg/kg"}]}
